Measured values taken from PMC12061305.

The chains behind the UniProt entries cited, without tags or fusion partners.
UniProt Q8VEK3: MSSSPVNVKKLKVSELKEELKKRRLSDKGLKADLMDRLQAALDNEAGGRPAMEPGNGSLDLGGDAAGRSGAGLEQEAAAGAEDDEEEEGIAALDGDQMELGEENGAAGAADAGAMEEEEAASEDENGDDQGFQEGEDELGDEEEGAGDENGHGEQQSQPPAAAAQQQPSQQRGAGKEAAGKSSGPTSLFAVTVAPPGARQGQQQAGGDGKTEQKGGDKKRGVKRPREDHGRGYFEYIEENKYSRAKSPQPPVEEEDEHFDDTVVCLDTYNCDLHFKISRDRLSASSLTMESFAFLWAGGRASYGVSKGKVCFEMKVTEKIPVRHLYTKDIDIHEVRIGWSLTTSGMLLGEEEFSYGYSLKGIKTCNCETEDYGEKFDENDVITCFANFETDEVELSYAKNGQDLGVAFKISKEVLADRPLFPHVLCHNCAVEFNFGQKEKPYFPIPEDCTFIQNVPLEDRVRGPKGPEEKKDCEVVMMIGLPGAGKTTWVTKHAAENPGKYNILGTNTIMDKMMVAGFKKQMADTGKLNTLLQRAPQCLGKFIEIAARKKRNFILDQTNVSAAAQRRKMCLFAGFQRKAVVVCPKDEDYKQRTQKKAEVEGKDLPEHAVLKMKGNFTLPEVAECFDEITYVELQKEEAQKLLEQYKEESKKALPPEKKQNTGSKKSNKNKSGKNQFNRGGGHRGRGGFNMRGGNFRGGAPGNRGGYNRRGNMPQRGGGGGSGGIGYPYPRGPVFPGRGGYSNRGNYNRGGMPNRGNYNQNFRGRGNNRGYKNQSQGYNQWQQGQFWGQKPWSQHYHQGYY

T1: Niban2 (niban apoptosis regulator 2), immunoprecipitated for mass spectrometry (UniProt Q8R1F1)
T1 sequence: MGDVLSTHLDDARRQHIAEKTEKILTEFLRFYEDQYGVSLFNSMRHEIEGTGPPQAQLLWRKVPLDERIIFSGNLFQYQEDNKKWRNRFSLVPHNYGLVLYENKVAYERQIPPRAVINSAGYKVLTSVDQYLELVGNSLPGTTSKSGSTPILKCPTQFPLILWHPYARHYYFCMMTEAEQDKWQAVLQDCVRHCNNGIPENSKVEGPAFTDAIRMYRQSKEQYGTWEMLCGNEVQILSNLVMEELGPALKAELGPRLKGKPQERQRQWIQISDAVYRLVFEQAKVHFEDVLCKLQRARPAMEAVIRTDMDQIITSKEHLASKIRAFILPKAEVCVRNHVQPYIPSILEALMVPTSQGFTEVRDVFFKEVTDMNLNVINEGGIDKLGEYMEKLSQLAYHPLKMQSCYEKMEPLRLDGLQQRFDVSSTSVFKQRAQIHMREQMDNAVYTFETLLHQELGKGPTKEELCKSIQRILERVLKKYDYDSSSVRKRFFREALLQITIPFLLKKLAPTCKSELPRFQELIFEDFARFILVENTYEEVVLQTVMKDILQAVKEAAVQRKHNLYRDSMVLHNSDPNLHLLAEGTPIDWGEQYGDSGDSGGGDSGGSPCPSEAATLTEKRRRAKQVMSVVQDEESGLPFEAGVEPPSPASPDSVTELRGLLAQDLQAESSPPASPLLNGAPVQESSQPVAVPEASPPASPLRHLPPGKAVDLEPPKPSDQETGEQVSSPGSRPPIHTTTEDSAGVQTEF

B1: Hnrnpdl (protein, UniProt Q9Z130 1-301)
chain: MEDMNEYSNIEEFAEGSKINASKNQQDDGKMFIGGLSWDTSKKDLTEYLSRFGEVVDCTIKTDPVTGRSRGFGFVLFKDAASVDKVLELKEHKLDGKLIDPKRAKALKGKEPPKKVFVGGLSPDTSEEQIKEYFGAFGEIENIELPMDTKTNERRGFCFITYTDEEPVKKLLESRYHQIGSGKCEIKVAQPKEVYRQQQQQQKGGRGAAAGGRGGARGRGRGQGQNWNQGFNNYYDQGYGNYNSAYGGDQNYSGYGGYDYTGYNYGNYGYGQGYADYSGQQSTYGKASRGGGNHQNNYQPY
B2: Nono (protein, UniProt Q99K48 1-473)
chain: MQSNKAFNLEKQNHTPRKHHQHHHQQHHQQQQQQQQQQPPPPIPANGQQASSQNEGLTIDLKNFRKPGEKTFTQRSRLFVGNLPPDITEEEMRKLFEKYGKAGEVFIHKDKGFGFIRLETRTLAEIAKVELDNMPLRGKQLRVRFACHSASLTVRNLPQYVSNELLEEAFSVFGQVERAVVIVDDRGRPSGKGIVEFSGKPAARKALDRCSEGSFLLTTFPRPVTVEPMDQLDDEEGLPEKLVIKNQQFHKEREQPPRFAQPGSFEYEYAMRWKALIEMEKQQQDQVDRNIKEAREKLEMEMEAARHEHQVMLMRQDLMRRQEELRRMEELHNQEVQKRKQLELRQEEERRRREEEMRRQQEEMMRRQQEGFKGTFPDAREQEIRMGQMAMGGAMGINNRGAMPPAPVPPGTPAPPGPATMMPDGTLGLTPPTTERFGQAATMEGIGAIGGTPPAFNRPAPGAEFAPNKRRRY
B3: Hnrnpr (protein, UniProt Q8VHM5 1-632)
chain: MANQVNGNAVQLKEEEEPMDTSSVTHTEHYKTLIEAGLPQKVAERLDEIFQTGLVAYVDLDERAIDALREFNEEGALSVLQQFKESDLSHVQNKSAFLCGVMKTYRQREKQGSKVQESTKGPDEAKIKALLERTGYTLDVTTGQRKYGGPPPDSVYSGVQPGIGTEVFVGKIPRDLYEDELVPLFEKAGPIWDLRLMMDPLSGQNRGYAFITFCGKEAAQEAVKLCDSYEIRPGKHLGVCISVANNRLFVGSIPKNKTKENILEEFSKVTEGLVDVILYHQPDDKKKNRGFCFLEYEDHKSAAQARRRLMSGKVKVWGNVVTVEWADPVEEPDPEVMAKVKVLFVRNLATTVTEEILEKSFSEFGKLERVKKLKDYAFVHFEDRGAAVKAMDEMNGKEIEGEEIEIVLAKPPDKKRKERQAARQASRSTAYEDYYYHPPPRMPPPMRGRGRGGRGGYGYPPDYYGYEDYYDDYYGYDYHDYRGGYEDPYYGYDDGYAVRGRGGGRGGRGAPPPPRGRGAPPPRGRAGYSQRGAPLGPPRGSRGGRGGPAQQQRGRGSRGARGNRGGNVGGKRKADGYNQPDSKRRQTNNQQNWGSQPIAQQPLQQGGDYSGNYGYNNDNQEFYQDTYGQQWK

molecular target: T1, Niban2 (niban apoptosis regulator 2), immunoprecipitated for mass spectrometry; assay: affinity purification with mass spectrometry; Niban2 immunoprecipitated from cell lysate, IgG group as control; co-precipitated proteins identified by mass spectrometry; cells not given

binding	Molecule
binds	Hnrnpu (found with immunoprecipitated Niban2 by mass spectrometry) (from UniProt Q8VEK3 1-800)
binds	Hnrnpk (from UniProt P61979 1-463)
binds	B1
binds	B2
binds	B3

Results are given in words; binding and its absence hold for the method and conditions named. Binding seen in cells or lysates may run through a third protein. Here binding means that the protein was enriched with, or labelled near, the bait; the list need not be complete.
